Assay results published in PubChem BioAssay AID1487 (National Center for Advancing Translational Sciences (NCATS), 2009).
The list shows a part of the results. These are further read-outs of the screen, such as a control signal, another cell line or another target. No call is given for them. Compounds called inactive in the main read-out are mostly missing here. The note in brackets gives the kind of curve behind each potency; many fits are weak.

Test: qHTS Assay for Modulators of Lamin A Splicing
Settings: HeLa LMNA splicing GFP/RFP minigene ratio, 48 h
Outline: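 S3 HeLa cells stably expressing lamin A-EGFP splicing minigene plus DsRed2, 600 cells/well, 48 h compound exposure at 37C. Laser-scanning cytometry; analysed as GFP (500-530 nm)/RFP (575-640 nm) total intensity ratio; 0.5% DMSO vehicle.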

[1] = measured here: RFP viability control channel
[2] = measured here: GFP splicing reporter channel

Structure (SMILES)	AC50 [1]	AC50 [2]
COc1cccc(-c2ccc3ncnc(N(C)Cc4ccco4)c3c2)c1	10 µM [falling, partial curve, poor fit]	–
O=C(c1ccc(=O)[nH]n1)N1CCN(S(=O)(=O)c2ccc3ccccc3c2)CC1	–	6.31 µM [rising, single point]
CC(C)(C)NC(=O)COc1ccc(-c2ccccc2)cc1	35.5 µM [rising, single point]	–
CCCc1ccc(-c2cc(NC(=O)CSc3nnc(N)s3)n(-c3ccccc3)n2)cc1	–	25.1 µM [rising, single point]
COc1ccc(N=C2CC(C)(C)CC(=O)/C2=C(/O)c2ccccc2)cc1	–	2.82 µM [falling, full curve, poor fit]
COCC(=O)n1cc(C(=O)OC)c2ccccc21	35.5 µM [falling, single point]	–
COc1cccc(C(=O)N/N=C/c2ccc(Oc3ccc([N+](=O)[O-])cn3)c(OC)c2)c1	22.4 µM [rising, single point]	14.1 µM [rising, single point]
COc1ccc(OC)c(C(=O)/C=C/c2ccccc2C(F)(F)F)c1	17.8 µM [falling, partial curve]	12.6 µM [falling, partial curve]
Cn1c(=O)cc(OCCCC(=O)N2CCN(Cc3ccc4c(c3)OCO4)CC2)c2ccccc21	–	12.6 µM [rising, single point]
Clc1ccccc1-c1nccc(NCc2cccs2)n1	0.355 µM [falling, full curve, poor fit]	0.224 µM [falling, partial curve, poor fit]
CC1=NN(C(=O)c2ccccc2-n2cccc2)C(O)(C(F)(F)F)C1 (centres undefined)	20 µM [rising, single point]	–
Cc1sc(NC(=O)/C=C/C(=O)O)c(C(N)=O)c1-c1ccc(C(C)(C)C)cc1	31.6 µM [rising, single point]	–
CC(C)CNC(=O)c1cccc(NC(=O)c2ccc(Cl)c([N+](=O)[O-])c2)c1	35.5 µM [rising, single point]	35.5 µM [rising, single point]
O=C(COC(=O)CCc1ccc(S(=O)(=O)N2CCOCC2)cc1)Nc1ccc(Cl)cn1	–	1.12 µM [rising, partial curve, poor fit]
COC(=O)c1ccccc1NC(=O)CSc1nnc(COc2cccc(OC)c2)n1C	–	15.8 µM [rising, single point]
COc1ccc(-c2cn3cccnc3n2)cc1NC(=O)c1cc(C)cc(C)c1	–	35.5 µM [falling, partial curve, poor fit]
CC(C)COc1ccc(CSCCNC(=S)Nc2ccccc2)cc1	11.2 µM [falling, partial curve]	17.8 µM [falling, single point]
COc1cc(C(C[N+](=O)[O-])c2c(C)[nH]c3ccccc23)ccc1O (centres undefined)	11.2 µM [rising, partial curve, poor fit]	10 µM [rising, partial curve, poor fit]
COc1ccc(OC)c(C2=NOC(C(=O)Nc3cc(C)nn3-c3ccccc3)C2)c1 (centres undefined)	35.5 µM [rising, single point]	–
O=c1cc(O)c2sc3nc(C(F)(F)F)c4c(c3c2[nH]1)CCCCC4	0.501 µM [rising, single point]	0.562 µM [rising, single point]
COc1ccc(NS(=O)(=O)c2ccc(N3CCOCC3)c(NC(=O)c3ccc(F)cc3)c2)cc1	11.2 µM [rising, partial curve]	–
COc1ccc(-c2csc(NC(=O)CSc3nnc(Nc4ccccc4C)s3)n2)cc1	17.8 µM [falling, partial curve, poor fit]	–
CCCC(=O)NC(=S)Nc1cccc(Cl)c1N1CCCC1	–	35.5 µM [rising, single point]
COC(=O)c1cc(NC(=O)Cn2nc(-c3ccc(C)c(C)c3)ccc2=O)cc(C(=O)OC)c1	–	0.398 µM [falling, full curve]
CC1CCCN(c2ccc(C(=O)Nc3ccc4c(c3)OCO4)cc2[N+](=O)[O-])C1 (centres undefined)	31.6 µM [rising, partial curve]	–
COC(=O)Cn1c(CN2CCN(c3ccc(F)cc3)CC2)nc2c1c(=O)n(C)c(=O)n2C	17.8 µM [rising, single point]	–
COc1ccc(S(=O)(=O)n2[nH]c(=O)c(CCO)c2C)c([N+](=O)[O-])c1	0.00316 µM [rising, full curve, poor fit]	0.0631 µM [rising, full curve]

One compound at a time, from the list above. Values in the order: AC50 [1]	AC50 [2]
COC(=O)c1ccccc1NC(=O)CSc1nnc(COc2cccc(OC)c2)n1C is entered as –	15.8 µM [rising, single point]
COc1ccc(OC)c(C(=O)/C=C/c2ccccc2C(F)(F)F)c1 is entered as 17.8 µM [falling, partial curve]	12.6 µM [falling, partial curve]
CCCc1ccc(-c2cc(NC(=O)CSc3nnc(N)s3)n(-c3ccccc3)n2)cc1 is entered as –	25.1 µM [rising, single point]

Continuation.

Structure (SMILES)	AC50 [1]	AC50 [2]
Cc1c(C(=O)OCc2nc3scc(-c4ccccc4)c3c(=O)[nH]2)cccc1[N+](=O)[O-]	14.1 µM [rising, partial curve]	17.8 µM [rising, partial curve, poor fit]
Cc1ccc(-c2nc(Cn3c(=O)cc(-c4ccccc4)c4c(C)nn(C)c43)c(C)o2)cc1	0.0224 µM [falling, full curve, poor fit]	0.0562 µM [falling, full curve, poor fit]
CCc1c(-c2ccccc2)nc2ccccc2c1C(=O)NCc1ccc(C)cc1	6.31 µM [rising, partial curve]	–
CC1COC2C(O1)N(S(C)(=O)=O)CCN2S(C)(=O)=O (centres undefined)	–	35.5 µM [rising, single point]
N#Cc1c(NC(=O)CSc2ncn[nH]2)sc2c1CCCC2	10 µM [rising, partial curve]	–
CCC(=O)N1CCc2cc(S(=O)(=O)Nc3ccc4c(c3)OCCO4)ccc21	8.91 µM [rising, partial curve]	–
Cn1cnc(S(=O)(=O)N2CCC(C(=O)N3CCN(c4ccccc4F)CC3)CC2)c1	0.00631 µM [rising, full curve, poor fit]	–
COc1ccc(-c2nnc3c4ccccc4c(C)nn23)cc1	11.2 µM [rising, single point]	15.8 µM [rising, single point]
c1ccc2c(c1)nnn1c3ccccc3nc21	35.5 µM [rising, single point]	35.5 µM [rising, single point]
COCCNc1nc(-n2nc(C)cc2C)nc2sc3c(c12)CCCC3	5.62 µM [rising, partial curve]	–
O=c1[nH]snc1N1CCOCC1	0.0891 µM [falling, full curve, poor fit]	2.24 µM [falling, full curve, poor fit]
CCOC(=O)c1c(NC(=O)C2COc3ccccc3O2)sc2c1CCN(Cc1ccccc1)C2 (centres undefined)	31.6 µM [rising, single point]	–
S=C(NCc1ccccc1)N1CCN(Cc2ccc3c(c2)OCO3)CC1	1.26 µM [falling, partial curve]	–
CCOC(=O)C1C(=O)C=C(c2ccc([N+](=O)[O-])cc2)CC1c1ccccc1 (centres undefined)	12.6 µM [rising, single point]	–
N#CC1=C(N)C(C#N)(C#N)[C@H](c2cccnc2)[C@H]2CN(C(=O)OCc3ccccc3)CC=C12	35.5 µM [rising, single point]	12.6 µM [rising, single point]
CCCCOc1ccc(N(CC(=O)NC(C)(C)CC)C(=O)CCC(=O)Nc2ccccn2)cc1	3.55 µM [falling, full curve, poor fit]	–
COc1ccc2cc(CN(CC3CCCO3)C(=S)Nc3ccccc3)c(=O)[nH]c2c1 (centres undefined)	1.26 µM [falling, full curve, poor fit]	1.58 µM [falling, full curve]
CC(=O)c1ccc(N2C(=O)N(CC(=O)c3ccc(C)cc3)c3ccccc3S2(=O)=O)cc1	3.98 µM [rising, full curve]	2.82 µM [rising, single point]
CS(=O)(=O)c1ccccc1C(=O)N1CCN(Cc2ccccc2)CC1	0.0794 µM [rising, full curve]	–
C=CCn1c(SCC(=O)c2ccc(Cl)cc2)nnc1-c1ccc2c(c1)OCO2	31.6 µM [rising, single point]	31.6 µM [rising, single point]
COc1ccc(NC(=O)C(Cl)=C(Cl)Cl)cn1	35.5 µM [falling, single point]	–
O=C1Cc2ccccc2Sc2ccc(O)cc21	31.6 µM [rising, single point]	14.1 µM [rising, single point]
CC(=O)Nc1ccc(Oc2cc(C#N)c(C#N)cc2N2CCCCCC2)cc1	11.2 µM [rising, partial curve]	–
Cn1c(=O)c2c(nc(CN3CCN(c4ccccc4)CC3)n2Cc2ccccc2F)n(C)c1=O	–	7.08 µM [rising, full curve, poor fit]
O=[N+]([O-])c1cccc(/C=N/Nc2nc(N3CCOCC3)nc(N3CCOCC3)n2)c1	35.5 µM [rising, single point]	22.4 µM [rising, single point]
Cc1ccc(CC(=O)Nc2ccc(OC(F)F)c(Cl)c2)cc1C	20 µM [rising, single point]	11.2 µM [rising, single point]
Cc1ccc[n+](-c2nc3ccccc3nc2C(=C=[N-])C#N)c1	12.6 µM [rising, single point]	–
